Experimental data: PubChem BioAssay AID493014 (National Center for Advancing Translational Sciences (NCATS), 2011)
The other results are listed elsewhere or left out. The main result of the screen is listed elsewhere. These columns were measured beside it and carry no call. The list favours compounds with an active or inconclusive main result. Words in brackets tell the shape of the fitted curve; partial curves, single points and poor fits give uncertain potencies.

Assay: qHTS Assay to Find Inhibitors of Chronic Active B-Cell Receptor Signaling
Conditions: ABC-DLBCL IkBa-CBG/CBR reporter, luminescence ratio (green luciferase fused to IkBa over red control in TMD8 lymphoma cells), 4 h
Outline: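 Doxycycline induced both beetle luciferases in TMD8 lymphoma cells; IKK-driven degradation limits the IkappaBalpha-fused green signal, while red luminescence normalises for cell number and nonspecific effects. Compounds tested up to 46 uM, 4 hrs.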

[1] = measured here: CBR red luminescence, cell number

**Q.** Which AC50 [1] does the source give for `O=S(=O)(c1ccccc1)N1CCC(Oc2ccc(-n3cnnn3)cc2)CC1` here?
**A.** 0.1 µM [falling, full curve, poor fit]

**Q.** For `Cn1cc(CNC(=O)COc2ccc(Cl)cc2Cl)cn1`, which AC50 [1] is on record?
**A.** 16.4 µM [rising, single point]

**Q.** With `COc1ccccc1C(=O)Nc1ccccc1C(=O)N1CCCC1` as the compound, how does the AC50 [1] read?
**A.** 4.11 µM [rising, partial curve, poor fit]

**Q.** For `O=C1c2ccccc2C(=O)N1CCCP(=O)(O)CCc1ccccc1`, which AC50 [1] is on record?
**A.** 29.1 µM [falling, single point]

**Q.** With `O=C(NCC1CCCO1)c1ccc(S(=O)(=O)Nc2ccc(F)cc2)cc1` (centres undefined) as the compound, how does the AC50 [1] read?
**A.** 29.1 µM [rising, single point]

**Q.** For `CCn1c(SCc2ccc(OC)c(F)c2)nc2ccccc2c1=O`, which AC50 [1] is on record?
**A.** 14.1 µM [rising, single point]

**Q.** With `Cn1cc(Cl)c(C(=O)Nc2nc3ccc([N+](=O)[O-])cc3s2)n1` as the compound, how does the AC50 [1] read?
**A.** 3.98 µM [falling, partial curve]

**Q.** Which AC50 [1] does the source give for `Cc1ccnc(NC(=O)CCC(=O)N(CC(=O)NCc2ccccc2)Cc2ccco2)c1` here?
**A.** 2 µM [falling, full curve, poor fit]

**Q.** Which AC50 [1] does the source give for `Cc1ccc(/C=C2\SC(=S)N(CCCC(=O)Nc3ccccc3C(=O)O)C2=O)cc1` here?
**A.** 0.794 µM [rising, partial curve, poor fit]

**Q.** Which AC50 [1] does the source give for `CCCCCCCN1C(Nc2ccccc2)=NC[C@@H]1Cc1ccccc1` here?
**A.** 17.8 µM [falling, partial curve]

**Q.** Which AC50 [1] does the source give for `CCCc1ccc(-c2ccc(C(=O)O)cc2)nc1` here?
**A.** 2.59 µM [falling, partial curve]

**Q.** Which AC50 [1] does the source give for `COc1ccc(C)c2sc(N(CCN(C)C)C(=O)/C=C/c3cccs3)nc12` here?
**A.** 14.1 µM [falling, partial curve]

**Q.** Which AC50 [1] does the source give for `O=C(/C=C/c1cccc([N+](=O)[O-])c1)Nn1c(-c2ccccc2F)nc2ccccc2c1=O` here?
**A.** 13 µM [rising, partial curve]

**Q.** For `Oc1ccc(/C=N/n2c(-c3ccccc3)n[nH]c2=S)cc1Br`, which AC50 [1] is on record?
**A.** 11.2 µM [falling, partial curve, poor fit]

**Q.** With `O=C(Nc1ccc(Oc2ccccc2)cc1)c1cnc2n(c1=O)CCS2` as the compound, how does the AC50 [1] read?
**A.** 0.461 µM [rising, full curve, poor fit]

**Q.** For `COC(=O)C1=C(C)N(CC2CC2)C(=NCc2cccc(Cl)c2)N[C@H]1c1ccccc1`, which AC50 [1] is on record?
**A.** 35.5 µM [falling, single point]

**Q.** With `O=C(O)c1cccc(Nc2ncnc3ccccc23)c1` as the compound, how does the AC50 [1] read?
**A.** 1.64 µM [falling, full curve, poor fit]

**Q.** With `CC1(C)S/C(=N/N=C/c2ccco2)NC1=O` as the compound, how does the AC50 [1] read?
**A.** 25.9 µM [rising, single point]

**Q.** For `Cc1ccc(S(=O)(=O)Nc2nccs2)cc1[N+](=O)[O-]`, which AC50 [1] is on record?
**A.** 1.12 µM [falling, partial curve, poor fit]

**Q.** Which AC50 [1] does the source give for `CCC(=O)Nc1ccc(NC(=O)c2c(C)nc3ccccn23)cc1` here?
**A.** 31.6 µM [rising, partial curve, poor fit]

**Q.** Which AC50 [1] does the source give for `CCS(=O)(=O)c1ccc2oc(Nc3ccc(OC)c(OC)c3)nc2c1` here?
**A.** 7.08 µM [rising, partial curve]

**Q.** With `FC(F)(F)c1ccccc1NC(=S)N1CCN(Cc2ccc3c(c2)OCO3)CC1` as the compound, how does the AC50 [1] read?
**A.** 35.5 µM [falling, single point]

**Q.** Which AC50 [1] does the source give for `O=C(/C=C/c1ccc([N+](=O)[O-])cc1)Nc1cccc(C(=O)Nc2ccccc2C(=O)O)c1` here?
**A.** 14.1 µM [falling, partial curve]

**Q.** With `Cc1cccc(NC(=O)c2nc[nH]c2C(=O)NC2CCN(C(=O)OC(C)(C)C)CC2)c1` as the compound, how does the AC50 [1] read?
**A.** 25.9 µM [rising, partial curve, poor fit]

**Q.** Which AC50 [1] does the source give for `O=C(NC1CCCCC1)NC12CC3CC(CC(C3)C1)C2` here?
**A.** 20 µM [rising, single point]

**Q.** Which AC50 [1] does the source give for `COc1ccc(C2C(=O)N(C3CCCCCC3)CC(=O)N2CCc2ccccc2)cc1` (centres undefined) here?
**A.** 7.08 µM [falling, full curve, poor fit]

**Q.** For `COc1cccc(NC(=O)CCSc2ccc(C)cc2)c1`, which AC50 [1] is on record?
**A.** 5.17 µM [falling, partial curve, poor fit]

**Q.** For `CCN(C(=O)CSc1nnc(-c2ccccc2C)n1C)c1c(N)n(Cc2ccccc2)c(=O)[nH]c1=O`, which AC50 [1] is on record?
**A.** 20.6 µM [rising, single point]

**Q.** Which AC50 [1] does the source give for `COc1ccc(OC)c(NCc2cccn2-c2nnc(N3CCC(C)CC3)s2)c1` here?
**A.** 7.08 µM [rising, full curve, poor fit]

**Q.** With `O=C(N/N=C/c1cccc(O)c1)c1cc2c(ccc3ccccc32)o1` as the compound, how does the AC50 [1] read?
**A.** 5.01 µM [falling, full curve]

**Q.** For `COc1ccc(CNCC(O)(c2ccc(Cl)cc2)c2ccc(Cl)cc2)cc1OC`, which AC50 [1] is on record?
**A.** 12.6 µM [falling, partial curve]

**Q.** With `COc1ccccc1N1C(=O)CC(Sc2ccccc2N)C1=O` (centres undefined) as the compound, how does the AC50 [1] read?
**A.** 3.16 µM [falling, single point]

**Q.** With `O=C(NNc1nc(-c2ccccc2)cs1)c1ccco1` as the compound, how does the AC50 [1] read?
**A.** 6.51 µM [rising, single point]

**Q.** Which AC50 (measured here: IkBa-CBG green luminescence) does the source give for `Cn1nc(C(F)(F)F)c(C(=O)Nc2ccc(F)cc2F)c1Sc1cccc(Cl)c1` here?
**A.** 35.5 µM [rising, partial curve, poor fit]

**Q.** Which AC50 [1] does the source give for `O=c1oc(/C=C/c2ccc([N+](=O)[O-])s2)nc2ccccc12` here?
**A.** 35.5 µM [falling, single point]

**Q.** For `c1csc(-c2nnc(N3CCCCCC3)c3ccccc23)c1`, which AC50 [1] is on record?
**A.** 4.11 µM [rising, full curve]

**Q.** For `COc1ccc(OC)c(/C=C2\SC(=S)N(C(C(=O)O)c3ccccc3)C2=O)c1` (centres undefined), which AC50 [1] is on record?
**A.** 35.5 µM [falling, single point]

**Q.** For `Cc1cc(NC(=O)CSc2nnc(Nc3ccccc3C)s2)no1`, which AC50 [1] is on record?
**A.** 6.31 µM [falling, single point]

**Q.** Which AC50 [1] does the source give for `COc1ccc(CN(Cc2ccc(C(=O)O)cc2)C(=S)Nc2ccccc2Cl)cc1OC` here?
**A.** 2 µM [falling, partial curve, poor fit]

**Q.** With `CN1C(=O)CSc2ccc(NC(=O)N3CCc4ccccc43)cc21` as the compound, how does the AC50 [1] read?
**A.** 6.31 µM [rising, single point]

**Q.** For `O=c1c(-c2ccc3c(c2)OCCO3)coc2cc(O)cc(O)c12`, which AC50 [1] is on record?
**A.** 16.4 µM [falling, partial curve]

**Q.** With `CC(C)COC(=O)c1cc(=O)[nH]c2ccccc12` as the compound, how does the AC50 [1] read?
**A.** 0.501 µM [rising, full curve, poor fit]

**Q.** Which AC50 [1] does the source give for `COC(=O)CC1Oc2ccccc2N(Cc2ccc(C)cc2)C1=O` (centres undefined) here?
**A.** 13 µM [rising, partial curve, poor fit]

**Q.** Which AC50 [1] does the source give for `N#Cc1ccc(C(=O)CSc2n[nH]c(=O)n2-c2cccnc2)cc1` here?
**A.** 0.112 µM [rising, full curve, poor fit]

**Q.** With `CC(=O)N/N=C/c1cc([N+](=O)[O-])ccc1OCCOc1ccccc1` as the compound, how does the AC50 [1] read?
**A.** 6.31 µM [rising, partial curve, poor fit]

**Q.** With `COc1cc2nc(NC(=O)c3ccccc3)sc(=O)c2cc1OC` as the compound, how does the AC50 [1] read?
**A.** 31.6 µM [rising, single point]

**Q.** With `CCOC(=O)c1ccc(N2C(=O)CC(N(C)CCc3ccc(OC)c(OC)c3)C2=O)cc1` (centres undefined) as the compound, how does the AC50 [1] read?
**A.** 0.58 µM [rising, partial curve, poor fit]

**Q.** For `CO/N=C(\Cn1ncc(N2CCCC2)c(Br)c1=O)c1ccc(Cl)cc1`, which AC50 [1] is on record?
**A.** 29.1 µM [falling, single point]

**Q.** For `Cc1oc(-c2ccc(Cl)cc2)nc1CS(=O)CC(=O)NCCCN1CCN(Cc2ccccc2)CC1` (centres undefined), which AC50 [1] is on record?
**A.** 7.08 µM [falling, partial curve]

**Q.** For `CC1(C(=O)NNC(=S)NCc2ccco2)CC1(Cl)Cl` (centres undefined), which AC50 [1] is on record?
**A.** 35.5 µM [rising, single point]

**Q.** For `CCN1CCN(C(c2cccs2)C(C)NC(=S)NC2CCCCC2)CC1` (centres undefined), which AC50 [1] is on record?
**A.** 1.58 µM [rising, partial curve, poor fit]

**Q.** For `O=C1NCCN(Cc2ccc(-c3ccccc3)cc2)C1CC(=O)N1CCN(CCO)CC1` (centres undefined), which AC50 [1] is on record?
**A.** 4.47 µM [rising, full curve, poor fit]

**Q.** For `Cc1ccc(S(=O)(=O)N2CCN(c3ccc([N+](=O)[O-])c4cccnc34)CC2)cc1`, which AC50 [1] is on record?
**A.** 0.259 µM [rising, full curve, poor fit]

**Q.** Which AC50 [1] does the source give for `CC1(C)CC(=O)C(C=Nc2cccnc2)=C(O)C1` here?
**A.** 12.6 µM [rising, partial curve, poor fit]

**Q.** Which AC50 [1] does the source give for `COc1cc(C(Nc2ccc3c(c2)OCO3)C(=O)NC2CCCCC2)cc(OC)c1OC` (centres undefined) here?
**A.** 1.46 µM [rising, partial curve, poor fit]

**Q.** With `COc1cc(OC)c(C(=O)OCC(=O)Nc2ccc(N3CCOCC3)cc2)cc1OC` as the compound, how does the AC50 [1] read?
**A.** 7.31 µM [rising, partial curve]

**Q.** For `O=c1[nH]c(CSc2nnc(-c3ccccc3)n2-c2ccccc2)nc2ccccc12`, which AC50 [1] is on record?
**A.** 14.6 µM [rising, partial curve, poor fit]

**Q.** With `O=C1CC(c2ccccc2)CN1C(=O)c1cncc(Br)c1` (centres undefined) as the compound, how does the AC50 [1] read?
**A.** 6.31 µM [rising, single point]

**Q.** For `Cc1cc(C(F)F)nn1CC(=O)Nc1cc([N+](=O)[O-])ccc1F`, which AC50 [1] is on record?
**A.** 29.1 µM [falling, single point]

**Q.** Which AC50 [1] does the source give for `O=C(NNC(=O)c1ccc2ccccc2c1O)c1cccs1` here?
**A.** 2 µM [falling, full curve, poor fit]

**Q.** With `S=c1[nH]nc(Cc2ccccc2)n1-c1ccccc1` as the compound, how does the AC50 [1] read?
**A.** 14.6 µM [rising, partial curve, poor fit]

**Q.** For `O=C(Nc1nc(-c2ccco2)c(-c2ccco2)s1)c1ccc(F)cc1F`, which AC50 [1] is on record?
**A.** 1.3 µM [falling, full curve]

**Q.** With `CCCC(=O)c1ccc(N2CCN(S(=O)(=O)c3ccccc3)CC2)c(F)c1` as the compound, how does the AC50 [1] read?
**A.** 5.01 µM [falling, full curve]

**Q.** For `O=C(NCC1CC1)c1ccc2c3n(nc2c1)-c1ccccc1CO3`, which AC50 [1] is on record?
**A.** 35.5 µM [falling, single point]
